These are yes or no findings as the source states them, for the method shown. Binding seen in cells or lysates may run through a third protein. Binding calls can cover weak binding; strength is not graded here. Sequences can lack the tags named with a protein.
B1: RFP-tagged SEC24A (protein, UniProt Q3U2P1 1-1090)
chain: MAQPRIPAARGAAASLQAQNGAASASGSPYTNGPVHNTLMSPQVSSSQGYDSQPPGSYPRPMPAKTLNPFSAQSNYGGSQGSGQTLNSPLVTSGPVLPSLHSGPVPRMPLPTSQNPAATPMPSGSFLPGANPPPPLNWQYNYPSTGPQTNHFPHVAPPTLPGNPNLTADHQYVSSGDPALQTSFKKPGSALPLQNPPLPPTFQPGAPPGPPPAGGPPPSRGPAPQKTPPRAAPPPSFNSAVNQEGITSNANNGSTAAHNTYDEIEGGGFLATPQLVNQNPKTSRSVGSAYPSLPPGYQNSAPPVAGMPPPSLSYPSGPQAFTQTPLGANHLTASMSGLSLHPEGLRVVNLLQERNMLPSTPLQPPVPNLLEDIQKLNCNPELFRCTLTSVPQTQALLNKAKLPLGLLLHPFKDLVQLPVVTSSTIVRCRSCRTYINPFVNFLDQRRWKCNLCYRVNDVPEEFMYNPLTRVYGEPHKRPEVQNATIEFMAPSEYMLRPPQPPVYLFVFDVSHNAIETGYLNSVCQSLLDNLDLLPGNTRTKIGFITFDSTIHFYSLQEGLSQPQMLIVSDIDDVFIPMPENLLVNLNESKELVQDLLKTLPQMFTKTLETQSALGPALQAAFKLISPTGGRMSVFQTQLPTLGVGALKPREEPNQRSSAKEIHLTPSTDFYKKLALDCSGQQAAVDLFLLSGQYSDLASLGCISRYSAGSVYYYPSYHHQHNPVQVQKLQKELHRYLTRKIGFEAVMRIRCTKGLSIHTFHGNFFVRSTDLLSLPNVNPDAGYAVQMSVEESLTDTQLVSFQSALLYTSSKGERRIRVHTLCLPVVSTLNEVFLGADVQAISGLLANMAVDRSVTASLSDARDALVNAVIDSLSAYRSSVLSGQQPGLMVPFSLRLFPLFVLALLKQKSFQTGTSIRLDERIFAMCQVKSQPLVHLMLTTHPSLYRVDNLSDEGALNINDRTIPQPPILQLSVEKLSRDGAFLMDAGSLLMLWVGRNCSQNFLSQVLGVQNYASIPQTMTDLPELDTPESARIAAFISWLREQRPFFPVLYVIREESLMKAAFLQSLVEDRTESALSYYEFLLHIQQQVNK
B2: RFP-tagged SEC24B (protein, UniProt Q80ZX0 1-1251)
chain: MSAPAGSPHPAAGARMPPKLGGAVSGLAPPQQNGPAQSPMQVPSGYGLPHQNYMVPSGHYSQGPGKMTSLPLDSQCDSYYSRPYTVPTQNSGTPSSANQPGAQQMYGRGPSAPHMGGSMPGSFQGIPASASHSYSSASQPYSSLGNRYSSPTTYSANASVASQGYPSTCSHYPISTVSNVVYPNVSYPSLPASEPYGQMFTSQSAPPPARPVKESYSGPSTALTYPSRPPPPPSQHQQQQQQQQQQQQQQQSHSGYSSLPWSGPALPPAQDSLIRNQMGSLATANSHPTNNENVQPPKSSSVVSTVLPGPSSTRMPPAPSHPVGPVPSAPPPPEQMQTKGMQYGDYGNNQASSTATPLSSASDDEEEQEEDEEAGVDSSSTTSSASPLPNSYDALEGGSYPDMHSSSASSPVPDHALEPSPTLAQALSAAPTPPAAQPAKVAKPFGYGYPALQPAYQNAAPPPMPAAHPSGPAYTGYPQHYPGVNQLSSGLGGLSLQSSPQPESLRPVNLTQEKNILPPTPIWAPVPNLSAELSKLNCSPDSFRCTLTSIPQTQALLNKAKLPLGLLLHPFRDLTQLPVITSNTIVRCRSCRTYINPFVSFIDQRRWKCNLCYRVNDVPEEFLYNPLTRSYGEPHKRPEVQNSTVEFIASSDYMLRPPQPAVYLFVLDVSHNAVEAGYLTVLCQSLLENLDKLPGDSRTRIGFMTFDSTIHFYNLQEGLSQPQMLIVSDIDDVFLPTPDSLLVNLYESKELIKDLLNALPSMFINTRETHSALGPALQAAFKLMSPTGGRVSVFQTQLPSLGAGLLQSREDPNQRSSTKVVHHLGPATDFYKKLALDCSGQQTAVDLFLLSSQYSDLASLACMSKYSAGCIFYYPSFHSTHNPSQAEKLQKDLKRYLTRKIGFEAVMRIRCTKGLSMHTFHGNFFVRSTDLLSLANINPDAGFAVQLSIEESLTDTALVCFQTALLYTSSKGERRIRVHTLCLPVVSSLADVYAGVDVQAAVCLLANMAVDRSVSSSLSDARDALVNAVVDPLSAYSSAVASVPRSTLTAPSSLKLLPLYVLALLKQKAFRTGTSTRLDDRVYAMCQMKSQPLVHLMKMIHPNLYRIDRLTDEGAIHVNDRVVPQPPLQKLSAEKLTREGAFLMDCGSVFYIWVGKGCDSNFIENVLGYPDFASIPQKMTHLPELDTLPSERTRSFVTWLRDSRPLSPVLHLVKDESPAKTDFFQHLLEDRTEAALSYYEFLIHIQQQVCK
B3: RFP-tagged SEC24C (protein, UniProt G3X972 1-1096)
chain: MNVNQSAPPVPPYGQNQPIYPGYHQSSYGGQPGPAAPATPYGAYNGPVPGYQQAPPQGVPRAPPSSGAPPASAAQVPCGQTTYGQFGQGDIQNGPSSTAQMQRVPGSQQFGPPLAPVVSQPAVLQPYGPPPTSTQVTAQLAGMQISGAVAQAPPPSGLGYGPPTSLASASGNFPNSGPYGSYPQSQAPPLSQAQGHPGVQPPLRSAPPLASSFTSPASGGPQMPSMTGLLPPGQGFGSLPVNQANHVSSPPAPALPPGTQMTGPPVPPPPPMHSPQQPGYQLQQNGSFGPARGPQPNYESPYPGAPTFGSQPGPPQPLPPKRLDPDAIPSPIQVIEDDRNNRGSEPFVTGVRGQVPPLVTTNFLVKDQGNASPRYIRCTSYNIPCTSDMAKQAQVPLAAVIKPLARLPPEEASPYVVDHGESGPLRCNRCKAYMCPLMTFIEGGRRFQCSFCSCVNDVPPQYFQHLDHTGKRVDAYDRPELSLGSYEFLATVDYCKNNKFPSPPAFIFMIDVSYNAIRTGLVRLLCEELKSLLDYLPREGGAEESAIRVGFVTYNKVLHFYNVKSSLAQPQMMVVSDVADMFVPLLDGFLVNVSESRAVITSLLDQIPEMFADTRETETVFAPVIQAGMEALKAAECAGKLFLFHTSLPIAEAPGKLKNRDDRKLINTDKEKTLFQPQTGTYQTLAKECVAQGCCVDLFLFPNQYVDVATLSVVPQLTGGSVYKYACFQVENDQERFLSDLRRDVQKVVGFDAVMRVRTSTGIRAVDFFGAFYMSNTTDVELAGLDGDKTVTVEFKHDDRLNEENGALLQCALLYTSCAGQRRLRIHNLALNCCTQLADLYRNCETDTLINYMAKFAYRAVLNSPVKTVRDTLITQCAQILACYRKNCASPSSAGQLILPECMKLLPVYLNCVLKSDVLQPGAEVTTDDRAYVRQLVSSMDVAETNVFFYPRLLPLTKSPLDSTAEPPAVRASEERLSSGDIYLLENGLNLFVWVGASVQQGVVQSLFNVSSFSQITSGLSVLPVLDNPLSKKVRGLIDSLRAQRMRYMKLIVVKQEDKLEMLFKHFLVEDKSLSGGASYVDFLCHMHKEIRQLLS
B4: RFP-tagged SEC24D (protein, UniProt Q6NXL1 1-1032)
chain: MSQQGYVATPPYSQSQPGMGISPPHYGHYGDPSHASSPPGVMKPLGPSAAPSGMLPPGPLPPGPPQFGPNGAHTPGHPPQRFPGPPPVNSVAPSYASGQTLPQSSYPGPGSTSSVTQLGSQFSSMQINSYGVGATPQSQGPPGPQSAGAFQGPPQPAQPSILQPGHQVPPPPPTALNGPGASPMSPPTHRQDGLPGPAPLNAQYQPPPPPGQTLGPGYPPQQATNYGPQMGGAQMSYPGGFPGGPAQMAGPAPQLQRKLDPDSIPSPIQVIENDRATRGGQVYTTNTRGQVPPLVTTECVIQDQGHSSPRYIRCTTYCFPCTSDMAKQAQIPLAAVIKPFADIPPNETPLYLVNHGESGPVRCNRCKAYMCPFMQFIEGGRRYQCGFCSCVNEVPPFYFQHLDHIGRRLDHYEKPELSLGSYEYVATLDYCRKNKPPSPPAFIFMIDVSYSNIKNGLVKLICEELKTALKRLPKEEHEETSAIRVGFITYNKVLHFFNVKSNLAQPQMMVVTDVGEVFVPLLDGFLVNYEESQSVIHNLLDQIPEMFADSNENETVFAPVIQAGMEALKAAECPGKLFIFHSSLPTAEAPGKLKNRDDKKLVNTDKEKILFQPQTAVYESLAKDCVANSCSVTLFLFPSQFVDVASLGLVPLLTGGTLYKYNVFQIHSDSQRFLTDLRNDIEKKIGFDAIMRVRTSTGFRATDFFGGIFMNNTTDVEMAAIDCDKAVTVEFKHDDKLSEDVGALIQCAVLYTTISGQRRLRIHNLALNCSTQLADLYKSCETDALINFFAKSAFKAVLNQPLKAIREILVNQTAHMLACYRKHCASPSAASQLILPDSMKVLPVYMNSLLKNCVLLSRSEISPDERAYQRQLVMTMGVADSQLFFYPLLLPIHTLDVKSAALPPAVRCSESRLSEEGIFLLANGLNMFLWFGVGSPPELIQGIFNVPSFAHINTDMTSLPEVGSPHSQQLRMIMNNIQQKKPYSMKLIVVKQREQREMAFRQFLVEDKGLYGGSSYVDFLCCVHKEICQLLN

Amino acid sequences for entries named in this document (tags omitted). A change or cut given only in a name is not applied to a line headed by its entry.
UniProt Q80W65: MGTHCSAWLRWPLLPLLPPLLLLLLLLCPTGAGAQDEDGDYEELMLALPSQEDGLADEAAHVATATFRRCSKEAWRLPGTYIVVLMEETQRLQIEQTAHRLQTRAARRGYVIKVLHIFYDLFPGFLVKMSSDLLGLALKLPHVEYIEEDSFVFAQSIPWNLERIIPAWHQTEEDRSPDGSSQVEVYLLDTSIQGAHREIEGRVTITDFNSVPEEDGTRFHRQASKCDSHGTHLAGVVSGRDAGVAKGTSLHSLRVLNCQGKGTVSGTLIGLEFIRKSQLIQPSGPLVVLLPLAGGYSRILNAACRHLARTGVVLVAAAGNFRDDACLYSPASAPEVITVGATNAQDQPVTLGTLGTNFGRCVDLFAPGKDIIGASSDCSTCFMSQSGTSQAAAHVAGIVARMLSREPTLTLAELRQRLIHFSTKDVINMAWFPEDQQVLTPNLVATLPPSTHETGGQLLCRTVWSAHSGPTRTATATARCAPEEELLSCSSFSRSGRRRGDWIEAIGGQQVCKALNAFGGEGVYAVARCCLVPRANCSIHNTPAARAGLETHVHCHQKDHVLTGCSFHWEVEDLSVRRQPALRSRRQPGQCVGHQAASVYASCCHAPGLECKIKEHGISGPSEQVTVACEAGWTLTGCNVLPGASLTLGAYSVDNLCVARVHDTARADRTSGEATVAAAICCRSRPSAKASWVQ

The binders below were run against PCSK9 fused with a C-terminal FLAG tag (PCSK9-FLAG) (mouse) (UniProt Q80W65) (assay: co-IP; lysates of 293T cells stably expressing PCSK9-FLAG, transfected with RFP-tagged SEC24A-D and GFP-tagged SEC23A; extracted in CHAPS-based buffer B (100 mM Tris pH 7.5, 0.5% CHAPS, 10% glycerol, 130 mM NaCl), anti-FLAG M2 agarose 4 hr at 4°C, four washes; immunoblot with anti-RFP and anti-FLAG).
For B1, the binding was “binds”.
With B2 the binding was “binds”.
With B3 the binding was “no binding”.
In the case of B4, the binding is reported as “no binding”.

Source: paper PMC3622177
